Measured values taken from article PMC4368515.
These are yes or no findings as the source states them, for the method shown. In cells and extracts the contact can be indirect. A yes stands for co-enrichment or nearness to the bait. Other partners may have been found.

Sequences of proteins named here, by UniProt entry; tags and fusion partners are left off. Residues count along the entry.
UniProt Q9NNX6, residues 59-404: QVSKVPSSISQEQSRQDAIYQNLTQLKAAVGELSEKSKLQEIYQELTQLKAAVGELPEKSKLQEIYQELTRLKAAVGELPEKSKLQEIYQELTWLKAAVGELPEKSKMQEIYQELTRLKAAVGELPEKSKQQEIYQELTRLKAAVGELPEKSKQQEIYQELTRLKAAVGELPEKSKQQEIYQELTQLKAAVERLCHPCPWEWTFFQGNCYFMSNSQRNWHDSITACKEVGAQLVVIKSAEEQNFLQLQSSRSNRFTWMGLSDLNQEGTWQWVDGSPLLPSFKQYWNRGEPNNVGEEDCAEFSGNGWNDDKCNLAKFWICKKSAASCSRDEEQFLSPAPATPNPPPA
UniProt P02788, residues 20-710: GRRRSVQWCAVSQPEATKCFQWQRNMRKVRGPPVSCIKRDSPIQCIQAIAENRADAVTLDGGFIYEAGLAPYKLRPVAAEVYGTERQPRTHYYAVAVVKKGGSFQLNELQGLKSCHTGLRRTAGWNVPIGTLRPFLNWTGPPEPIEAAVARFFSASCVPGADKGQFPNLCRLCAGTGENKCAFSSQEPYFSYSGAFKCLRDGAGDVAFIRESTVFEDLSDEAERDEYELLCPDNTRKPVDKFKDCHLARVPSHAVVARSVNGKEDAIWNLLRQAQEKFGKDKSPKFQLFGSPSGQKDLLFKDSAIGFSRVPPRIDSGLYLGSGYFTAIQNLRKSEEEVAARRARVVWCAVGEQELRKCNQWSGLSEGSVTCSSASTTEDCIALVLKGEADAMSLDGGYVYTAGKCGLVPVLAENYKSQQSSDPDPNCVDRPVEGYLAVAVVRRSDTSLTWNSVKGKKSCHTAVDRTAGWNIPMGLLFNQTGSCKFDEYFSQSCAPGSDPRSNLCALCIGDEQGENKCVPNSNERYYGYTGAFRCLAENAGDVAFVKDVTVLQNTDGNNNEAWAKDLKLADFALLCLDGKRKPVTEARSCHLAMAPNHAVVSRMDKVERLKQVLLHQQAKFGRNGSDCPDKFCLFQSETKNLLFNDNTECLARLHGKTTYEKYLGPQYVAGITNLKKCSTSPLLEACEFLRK

Target: DC-SIGN-Fc (UniProt Q9NNX6)
Test: affinity purification with mass spectrometry; DC-SIGN-Fc coated agarose beads incubated overnight with pooled colorectal mucus of 6 DC-SIGN high binders (flow-through of a Protein A/G column); two washes; boiled with DTT, 4-12% SDS PAGE; bands 2, 3 and 4 cut out, tryptic digest, ion trap mass spectrometry, Mascot; only the target purified

human lactoferrin from colorectal mucus (from UniProt P02788 20-710)
binding: binds
